The whole screen tested about 580,000 compounds, of which about 6,100 (1.1%) were called active. This list was built around the results that the source calls inconclusive (neither active nor inactive); the mix of calls is not that of the screen. Calls follow the shape of the dose curve; as a rule, active = well fitted inhibition curve with a large enough effect; inconclusive = small, poorly fitted or top-dose-only effect, or another doubt; inactive = no such curve, though single readings can be large or run the other way. Potencies of inconclusive entries are doubtful fits and often do not repeat.
What follows are molecules tested against Polyunsaturated fatty acid lipoxygenase ALOX12 (Homo sapiens) (UniProt P18054) (assay: Primary qHTS assay for inhibitors of human arachidonate 12S-lipoxygenase (ALOX12): Round 2). Details: purified 12hLO, xylenol orange hydroperoxide absorbance; activity change, negative = inhibition: at 108 µM (top of the series) unless noted.
Summary of the method: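 Hydroperoxide product was detected by ferrous iron/xylenol orange as the 573 to 405 nm absorbance ratio. Arachidonic acid at 40 uM (final) was turned over for 30 min at room temperature by 150 nM human 12hLO, pH 7.0 Hepes buffer, after 15 min compound preincubation.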
% is scaled to controls: 0 for no effect and ±100 for the full control effect; potency is read from the fitted curve at half-maximal effect.

The chains behind the UniProt entries cited, without tags or fusion partners. Where a name states a change or a piece, a line headed by the entry shows the natural chain unless it says otherwise.
UniProt P18054: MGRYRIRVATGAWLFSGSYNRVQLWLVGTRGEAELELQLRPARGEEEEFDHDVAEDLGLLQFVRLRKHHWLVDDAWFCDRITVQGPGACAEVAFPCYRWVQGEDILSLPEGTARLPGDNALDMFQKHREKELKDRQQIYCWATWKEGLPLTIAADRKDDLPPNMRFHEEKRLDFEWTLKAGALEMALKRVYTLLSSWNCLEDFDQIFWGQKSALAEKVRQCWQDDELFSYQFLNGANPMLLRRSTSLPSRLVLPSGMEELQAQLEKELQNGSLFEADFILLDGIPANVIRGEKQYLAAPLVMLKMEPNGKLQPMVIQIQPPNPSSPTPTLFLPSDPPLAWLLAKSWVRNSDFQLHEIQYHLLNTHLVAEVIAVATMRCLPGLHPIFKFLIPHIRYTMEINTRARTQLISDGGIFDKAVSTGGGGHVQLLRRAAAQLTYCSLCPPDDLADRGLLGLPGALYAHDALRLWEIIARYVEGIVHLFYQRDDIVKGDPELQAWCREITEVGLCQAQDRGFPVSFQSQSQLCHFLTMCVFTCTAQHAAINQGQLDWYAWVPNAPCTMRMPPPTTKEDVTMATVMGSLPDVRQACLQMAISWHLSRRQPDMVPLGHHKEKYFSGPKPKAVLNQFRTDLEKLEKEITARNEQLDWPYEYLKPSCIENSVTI

SMILES | activity change, negative = inhibition | Potency
NCCn1cc(C(=O)NCc2cccnc2Oc2cccc(C(F)(F)F)c2)nn1 | inactive: 25.8% | –
CC1CC2=C(NC(=S)NC2c2ccccc2F)/C(=C/c2ccccc2F)C1 (stereo not given) | – | active: 35.5 µM
CCOc1ccc(C2C(C(=O)c3ccco3)=C(O)C(=O)N2Cc2cccnc2)cc1 (stereo not given) | – | inconclusive: 6.31 µM [inhibitor, partial curve, poor fit]
COC(=O)N1C(=O)[C@@](Cc2ccccc2)(c2ccccc2)N1C(=O)OC | inactive: -9.02% | –
COc1ccc(OCC2(C)COc3ccc(C(=O)NCc4ccc(F)cc4)cc3N2)cc1 (stereo not given) | – | inconclusive: 10 µM [inhibitor, full curve, poor fit]
O=C(O)c1ccc([S+](=O)([O-])N2CC(COc3ccccc3)C3(CN(c4ccccc4)C3)C2)cc1 (stereo not given) | – | inconclusive: 31.6 µM [inhibitor, full curve, poor fit]
CN1CCCC2(Cc3ccccc3CN(C(=O)Cc3ccccc3)C2)C1 (stereo not given) | inactive: 1.4% [at 6.33 µM] | –
O=C(Nn1cnc2ccccc2c1=O)C1CCCC1 | inactive: -30.2% | –
Cc1cc(Cl)ccc1OCCCc1n[nH]c(=S)n1Cc1ccco1 | – | active: 17.8 µM
COC(=O)c1ccc(COC(=O)CCc2ccc3c(c2)OCO3)cc1 | – | inconclusive: 50.1 µM [inhibitor, single point]
COC(=O)c1ccc(/C=C/c2c(-c3ccsc3)oc3ccc(N4CCOCC4)cc23)cc1 | – | inconclusive: 89.1 µM [inhibitor, partial curve, poor fit]
COc1ccc(-c2cc(C(=O)Nc3ccc(Cl)cc3Cl)c3ccccc3n2)cc1OC | inactive: 8.88% | –
O=C(CSc1n[nH]c(-c2ccncc2)n1)NC1CCS(=O)(=O)C1 (stereo not given) | – | inconclusive: 11.2 µM [inhibitor, partial curve, poor fit]
CC1CCN(CC(=O)c2c[nH]c3ccccc23)CC1 | – | inconclusive: 39.8 µM [inhibitor, partial curve, poor fit]
O=C(N[C@@H]1CNCCC[C@H]1O)c1ccc(OCCN2CCOCC2)cc1 | – | inconclusive: 100 µM [inhibitor, partial curve, poor fit]
COC(=O)c1ccc(OC(=O)c2cc(-c3ccc(OC)cc3)nc3c(C)cc(C)cc23)cc1 | inactive: -4.16% | –
COc1ccc2nc(/C=C/c3cccc(F)c3)sc2c1 | – | inconclusive: 100 µM [inhibitor, partial curve, poor fit]
CC1=C(C(=O)OCC(C)C)C(c2cccs2)NC(=S)N1 (stereo not given) | – | inconclusive: 44.7 µM [inhibitor, partial curve, poor fit]
C[C@@H]1CCO[C@H]2Cn3cc(C(=O)NCc4ccc(F)cc4F)c(=O)c(O)c3C(=O)N12 | – | inconclusive: 1.93 µM [inhibitor, full curve, poor fit]
O=C(CSc1ccc(F)cc1)Nc1cccc(S(=O)(=O)N2CCOCC2)c1 | – | inconclusive: 89.1 µM [inhibitor, partial curve, poor fit]

SMILES | activity change, negative = inhibition | Potency
O=c1sc(/C=N/Nc2ccccc2)c(Cl)n1Cc1ccccc1 | – | inconclusive: 44.7 µM [inhibitor, partial curve, poor fit]
Cc1ccc(CNC2CCc3ccccc32)cc1 (stereo not given) | inactive: -5.46% | –
O=C(c1cccc(C(F)(F)F)c1)N1CCN(C/C=C/c2ccccc2)CC1 | – | inconclusive: 79.4 µM [inhibitor, single point]
COc1cc(C=O)c(OC)cc1Br | – | inconclusive: 35.5 µM [inhibitor, partial curve, poor fit]
Cc1ccccc1C(=O)NNC(=O)c1cccc([N+](=O)[O-])c1 | – | inconclusive: 2.24 µM [inhibitor, partial curve, poor fit]
Cc1cc2nc(C(C)(C)C)c(Cc3ccsc3)n2c(C)c1Br | – | inconclusive: 100 µM [inhibitor, single point]
COC(=O)c1ccc(COC(=O)c2ccc(C)cc2C)cc1 | – | inconclusive: 5.01 µM [inhibitor, full curve, poor fit]
O=C(O)C/C(=C/c1ccc(Cl)cc1Cl)c1nc2ccccc2o1 | – | inconclusive: 50.1 µM [inhibitor, full curve, poor fit]
CCCCC[C@@H]1C=C(C(=O)O)[C@H](c2ccc3c(c2)OCO3)N1S(=O)(=O)c1ccc(C)cc1 | – | inconclusive: 44.7 µM [inhibitor, partial curve, poor fit]
CS(=O)(=O)Oc1ccc2c(=O)c(-c3ccc(Cl)cc3)c(C(F)(F)F)oc2c1 | – | inconclusive: 56.2 µM [inhibitor, partial curve, poor fit]
CCCCN1C(=O)C2(C(=C(O)c3ccc4c(c3)OCCO4)C(=O)C(=O)N2CCOC)c2ccccc21 (stereo not given) | – | inconclusive: 0.501 µM [inhibitor, full curve, poor fit]
Cc1ccc(S(=O)(=O)NNC(=S)Nc2ccccc2)cc1 | – | inconclusive: 2.82 µM [inhibitor, full curve, poor fit]
O=C(O)c1cc(-c2ccccn2)nc2ccc(Br)cc12 | – | inconclusive: 0.501 µM [inhibitor, full curve, poor fit]
COc1ccc(N2CCN(Cc3nc4c(c(=O)n(C)c(=O)n4C)n3CCc3ccccc3)CC2)cc1 | inactive: 12.5% | –
CCn1cc2nc(SCC(=O)Nc3ccc(C)cc3C)n(Cc3ccc(C)cc3)c(=O)c2n1 | – | inconclusive: 126 µM [inhibitor, single point]
CCO[C@@H]1OC(C(=O)O)=C[C@H](c2ccc3c(c2)OCO3)[C@H]1CCCO | – | inconclusive: 112 µM [inhibitor, single point]
Cc1ccsc1C(=O)OCC(=O)Nc1ccc(Cl)c(C(F)(F)F)c1 | – | inconclusive: 3.55 µM [inhibitor, full curve, poor fit]
COC(=O)c1scc(C)c1N1C(=O)c2ccccc2C1=O | – | inconclusive: 56.2 µM [inhibitor, partial curve, poor fit]
N#C/C(=C\c1ccnc2ccccc12)c1nc2ccccc2s1 | – | inconclusive: 10 µM [inhibitor, full curve, poor fit]
COc1ccc(NC(=O)N(C)[C@H]2C[C@H]3c4[nH]c5ccc(-c6ccc7c(c6)OCO7)cc5c4CCN3C[C@H]2[C@H](C)O)cc1 | – | inconclusive: 112 µM [inhibitor, single point]

Four structures out of the list, sorted by count of non-hydrogen atoms, high to low.
SMILES | activity change, negative = inhibition | Potency
O=C(c1cccc(C(F)(F)F)c1)N1CCN(C/C=C/c2ccccc2)CC1 | – | inconclusive: 79.4 µM [inhibitor, single point]
CCO[C@@H]1OC(C(=O)O)=C[C@H](c2ccc3c(c2)OCO3)[C@H]1CCCO | – | inconclusive: 112 µM [inhibitor, single point]
N#C/C(=C\c1ccnc2ccccc12)c1nc2ccccc2s1 | – | inconclusive: 10 µM [inhibitor, full curve, poor fit]
Cc1cc2nc(C(C)(C)C)c(Cc3ccsc3)n2c(C)c1Br | – | inconclusive: 100 µM [inhibitor, single point]

More entries

SMILES | activity change, negative = inhibition | Potency
CC[C@H]1Nc2ccc(NC(=O)OC(C)(C)C)cc2[C@@H](NC(=O)OCc2ccccc2)[C@@H]1C | – | inconclusive: 50.1 µM [inhibitor, partial curve, poor fit]
CCc1ccc(C(=O)NNc2ccc(F)cc2)cc1 | inactive: 84.9% | –
Cc1nc2cc(NC(=O)c3cc(S(=O)(=O)N(C)c4ccccc4)ccc3Cl)ccc2o1 | – | inconclusive: 0.398 µM [inhibitor, full curve, poor fit]
CSCCC(NC(=O)c1ccc(Cl)cc1Cl)C(=O)N1CCCCCCC1 (stereo not given) | – | inconclusive: 56.2 µM [inhibitor, partial curve, poor fit]
O=C(CSc1nnc2ncccn12)Nc1cccc2ccccc12 | inconclusive: -41.6% [inhibitor] | –
NC1=[N+](Cc2ccccc2)C[C@H]2C(=C3CCCC[C@H]3n3c(=O)n(-c4ccccc4)c(=O)n32)N1 | – | inconclusive: 50.1 µM [inhibitor, partial curve, poor fit]
CCc1ccc(C(=O)NNc2cc(Cl)ccc2Cl)cc1 | – | inconclusive: 2.82 µM [inhibitor, full curve, poor fit]
COc1cc(C)ccc1Oc1ccc(NC(=O)c2ccc3c(c2)NC(=O)CS3)cn1 | – | inconclusive: 35.5 µM [inhibitor, single point]
COC(=O)c1ccc2nc(C3CCCCC3)c(Cc3ccccc3C(F)(F)F)n2c1 | – | inconclusive: 50.1 µM [inhibitor, partial curve, poor fit]
COc1ccc(C[C@H]2CN3C(=NC[C@@H]3Cc3ccc(O)cc3)N2CCNC(=O)c2ccc(C)c(Br)c2)cc1 | – | inconclusive: 112 µM [inhibitor, partial curve, poor fit]
O=C(Nc1ccc(C(=O)O)cc1)/C(=C\c1ccc2c(c1)OCO2)NC(=O)c1ccc(Br)cc1 | – | inconclusive: 63.1 µM [inhibitor, partial curve, poor fit]
CCOC(=O)c1oc2cc(OS(C)(=O)=O)ccc2c(=O)c1-c1ccccc1OC | – | inconclusive: 126 µM [inhibitor, partial curve, poor fit]
Cc1ccc(NC(=O)c2ccc(=O)n(CC(=O)Nc3cccc(C)c3)n2)cc1 | – | inconclusive: 89.1 µM [inhibitor, partial curve, poor fit]
Cc1ccc(S(=O)(=O)N2CCCC2=O)c(C)c1N(C)S(C)(=O)=O | – | inconclusive: 7.08 µM [inhibitor, full curve]
FC(F)(F)c1ccc(CSc2c[nH]c3ccccc23)cc1 | – | inconclusive: 39.8 µM [inhibitor, partial curve, poor fit]
CC1NC(C)c2c(ccc3ccccc23)O1 (stereo not given) | – | inconclusive: 56.2 µM [inhibitor, single point]
O=C(Cc1ccc(Cl)cc1)NCc1coc(-c2cccs2)n1 | – | inconclusive: 141 µM [inhibitor, single point]
O=C(C1CCCCC1)N1CC(=O)N2CCc3ccccc3C2C1 (stereo not given) | – | inconclusive: 1.53 µM [inhibitor, full curve]
CCOC(=O)N1CCN(CC(O)COC(CC)c2ccccc2)CC1 (stereo not given) | – | inconclusive: 50.1 µM [inhibitor, partial curve, poor fit]
C[C@@H]1CCCCO[C@H](CN(C)Cc2ccc(C(=O)O)cc2)[C@@H](C)CN([C@H](C)CO)C(=O)c2cc(N(C)C)ccc2O1 | – | inconclusive: 39.8 µM [inhibitor, partial curve, poor fit]
